# In PubChem BioAssay AID624297 (National Center for Advancing Translational Sciences (NCATS), 2012):
# Where “and” joins values, the source holds several entries; their conditions need not be identical. Equal entries are not always repeated. Out of some 340,000 compounds screened, about 6,200 (1.8%) were called active. Inconclusive means that the source gave no clear call. Such entries were picked first, then a sample of the others. Calls follow the shape of the dose curve; as a rule, active = well fitted activation curve with a large enough effect; inconclusive = small, poorly fitted or top-dose-only effect; inactive = no such curve, though single readings can be large or run the other way. Potencies beside an inconclusive call are fits to weak or partial responses and may not hold up.
# Assay: A quantitative high throughput screen for small molecules that induce DNA re-replication in SW480 colon adenocarcinoma cells. Also: nearly all actives have a fitted effect of over 55% in size. As to re-replication activation: % of control where 0% means no effect.
# Conditions: Hoechst DNA content imaging, 48 h; re-replication activation: at 46.1 µM (top of the series) unless noted
# Method in brief: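 Image-based DNA-content assay: after two days of treatment, nuclei were labelled with the DNA dye Hoechst and imaged, and hits were compounds raising the count of nuclei showing high fluorescence intensity.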
# Potency is read from the fitted curve at half-maximal effect.
SMILES,Potency,re-replication activation
Cc1ccsc1/C=N/Nc1nc(=O)[nH]nc1C,active: 6.51 µM,
OC(c1cc(C(F)(F)F)nc2c(Cl)cc(Cl)cc12)C1CCCCN1 (stereo not given),"inconclusive: 25.9 µM [activator, partial curve, poor fit]",
O=C1CSC(c2cccs2)N1c1ccccc1 (stereo not given),,inactive: -2.11%
Oc1ccc2ccccc2c1CNc1ccccc1,"inconclusive: 0.58 µM [activator, full curve, poor fit]",
O=C(NNC(=O)C1CCCC1)c1ccc(F)cc1,,inactive: -10.5%
Cc1cccc(C(=O)Nc2ccccc2NC(=O)c2cccc(C)c2)c1,"inconclusive: 29.1 µM [activator, single point]",
CCOC(=O)C1CCCN(C(=O)c2ccc(Cn3c(=S)[nH]c4cc(C(=O)OC)ccc4c3=O)cc2)C1 (stereo not given),"inconclusive: 20.6 µM [activator, single point]",
CN(C)c1ccc(N=Cc2ccco2)cc1,"inconclusive: 20.6 µM [activator, single point]",
CC(OC(=O)CN1C(=O)c2ccccc2C1=O)C(=O)N(C)c1ccccc1 (stereo not given),,inactive: 1.34%
CN1CCN(C(=O)CCCN2C(=O)/C(=C/c3ccccc3)SC2=S)CC1,"inconclusive: 23.1 µM [activator, single point]",
O=C(Cn1c(=O)oc2ccccc21)Nc1nc(-c2ccc(Br)cc2)cs1,"inconclusive: 29.1 µM [activator, single point]",
CCCCCCCN1C2=NCCCN2c2ccccc21,"inconclusive: 23.1 µM [activator, single point]",
Cn1c(N)c(-c2nc3cccnc3n2C)sc1=S,,inactive: 1.37%
CC(=O)Nc1ccc(/C(C)=N/NC(=O)c2ccccc2Cl)cc1,"inconclusive: 29.1 µM [activator, single point]",
Cc1ccc(C(=O)OCC(=O)NCc2ccco2)s1,"inconclusive: 3.66 µM [activator, partial curve, poor fit]",
CCN1CCN(C(=O)Nc2ccccc2OC)CC1,,inactive: 3.46%
CN(c1ccccc1)S(=O)(=O)c1cccc(NC(=O)CSc2nnc(N)s2)c1,,inactive: -9.79%
CCCCOc1ccc(Nc2nc(C)cc(C)c2C#N)cc1,"inconclusive: 0.461 µM [activator, partial curve, poor fit]",
COc1ccc(OCC(O)COc2ccc(OC)cc2)cc1,,inactive: -7.37%
O=C(C1=C[C@@H](C2CCCCC2)C[C@@H](OCc2ccc(CO)cc2)O1)N1CCOCC1,active: 0.184 µM,
COC(=O)CN1C(c2ccc(OC)cc2)=Nc2ccc(Cl)cc2C1c1ccccc1 (stereo not given),,inactive: -8.94%
O=C1/C(=C\c2ccccc2)CN(C(=O)CCN2CCCCC2)C/C1=C/c1ccccc1,"inconclusive: 1.03 µM [activator, full curve, poor fit]",
Cc1ccccc1-n1c(C)cc(/C=N/Nc2ccc([N+](=O)[O-])cn2)c1C,"inconclusive: 29.1 µM [activator, partial curve, poor fit]",
COc1cc(SC)ccc1C(=O)Nc1ccccc1,"inconclusive: 0.116 µM [activator, full curve, poor fit]",

SMILES,Potency,re-replication activation
Cc1[nH]n(-c2ccccc2)c(=O)c1/C=N/NC(=O)c1ccoc1C,"inconclusive: 6.51 µM [activator, full curve]",
Cc1cc(C(=O)NC2CCCN(Cc3ccc(Cl)cc3)C2)c(C)o1 (stereo not given),,inactive: 0.209%
COc1ccc(S(=O)(=O)NCC2CCCN(Cc3ccccc3Cl)C2)cc1 (stereo not given),,inactive: -1.1%
COc1cc(C2CC(=O)N(c3ccc(C)cc3)C(=O)C2)cc(OC)c1OC,active: 3.66 µM,
COc1ccccc1N/N=C1\COC(C)(C)CC1=O,"inconclusive: 0.82 µM [activator, full curve, poor fit]",
CCC(=O)N(c1nnc(SCC(=O)NN2C(=O)NC3(CCC(C)CC3)C2=O)s1)C1CC1 (stereo not given),"inconclusive: 2.59 µM [activator, partial curve, poor fit]",
Cc1ccc(NC(=O)NCC2CC2(Cl)Cl)cc1 (stereo not given),,inactive: 2.73%
COc1ccc(Cl)cc1C(=O)Nc1nc(C)cc(C)n1,,inactive: -12.5%
OCC1OC(n2cnc3c(/C=C(\O)c4ccccc4)ncnc32)C(O)C1O (stereo not given),"inconclusive: 29.1 µM [activator, single point]",
CCCOc1ccc(NC(=O)CC2C(=O)N(c3ccc(OCC)cc3)C(=S)N2C2CC2)cc1 (stereo not given),"inconclusive: 23.1 µM [activator, single point]",
CC1CCC(C(C)C)C(OC(=O)Cn2c(-c3ccc(Br)cc3)[n+](C)c3ccccc32)C1 (stereo not given),"inconclusive: 29.1 µM [activator, single point] and inconclusive: 32.6 µM [activator, partial curve, poor fit]",
CC(C(=O)c1ccc(-c2ccccc2)cc1)[n+]1cccc(C(N)=O)c1 (stereo not given),,inactive: -42.5%
COc1ccc(S(=O)(=O)N[C@@H](CSCc2ccccc2)C(=O)O)cc1,,inactive: -1.98%
CCOc1cccc2cc(-c3cn4cc(C)ccc4n3)c(=O)oc12,"inconclusive: 8.2 µM [activator, partial curve]",
Cc1noc(/C=C/c2cccs2)c1S(=O)(=O)N1CCC(C(=O)NCCCN2CCCC(C)C2)CC1 (stereo not given),"inconclusive: 0.199 µM [activator, partial curve, poor fit]",
COc1cc(/C=C/C(=O)OCC(=O)N2c3ccccc3CC2C)cc(OC)c1OC (stereo not given),"inconclusive: 29.1 µM [activator, single point]",
Cc1ccc(OCC(=O)c2cc(C)c(C)cc2C)c([N+](=O)[O-])n1,"inconclusive: 18.4 µM [activator, single point]",
CCOc1cc(CNCCc2ccc(S(N)(=O)=O)cc2)cc(Cl)c1OCc1ccccc1,"inconclusive: 23.1 µM [activator, single point]",
Cc1ccc(C(=O)NCCNc2ncc(C(F)(F)F)cc2Cl)cc1[N+](=O)[O-],"inconclusive: 29.1 µM [activator, partial curve, poor fit]",
O=S(=O)(c1cccc(-c2n[nH]c(=S)o2)c1)N1CCOCC1,,inactive: -3.56%
CCn1cc(Cl)c(C(=O)N2N=C(c3ccc4ccccc4c3)CC2c2ccccc2O)n1 (stereo not given),"inconclusive: 0.058 µM [activator, full curve, poor fit]",
O=S(=O)(c1ccc(Cl)cc1)N1CCN(c2ncnc3sccc23)CC1,,inactive: 2.28%
CCc1ccc2nc(Nc3ccc(OC)cc3OC)c(C#N)cc2c1,,inactive: 22.2%
COCCn1c(-c2ccc3ccccc3c2)nc2c1c(=O)[nH]c(=O)n2CC(C)C,,inactive: 16.6%

SMILES,Potency,re-replication activation
Cc1ccc(S(=O)(=O)N2CCOCC2)cc1C(=O)NC(=S)N(Cc1ccccc1)C(C)C,"inconclusive: 0.651 µM [activator, partial curve, poor fit]",
CCOc1cc(C(=O)Nc2ccncc2)cc(OCC)c1OCC,"inconclusive: 36.6 µM [activator, partial curve, poor fit]",
Cc1cccc(C(=O)NC(C)C(c2cccs2)N2CCOCC2)c1 (stereo not given),,inactive: -8.19%
CCc1cc(C(=O)c2ccc(OC)cc2)c(NC(=O)CN2CCCCC2)s1,,inactive: -4.65%
CCN(CC)C(=O)CSc1nc2c(sc(=S)n2-c2ccccc2)c(=O)n1Cc1ccco1,"inconclusive: 20.6 µM [activator, single point]",
N#CC(c1ccncc1)(c1ncc(C(F)(F)F)cc1Cl)N1CCOCC1 (stereo not given),,inactive: 4.39%
CC1CCN(c2ccccc2NC(=O)c2ccc([N+](=O)[O-])o2)CC1,,inactive: 0.356%
CCOC(=O)CSc1nc(C2CC2)nc2ccccc12,,inactive: -7.32%
Cc1cccc(NC(=O)c2ccc(Cn3cc(C(F)(F)F)ccc3=O)cc2)c1,,inactive: -1.92%
O=C(NCc1cccs1)c1noc2c1CCCC2,"inconclusive: 20.6 µM [activator, single point]",
Cc1cc(C(=O)N2CCCC(C(=O)c3cc(F)ccc3F)C2)c(C)o1 (stereo not given),"inconclusive: 20.6 µM [activator, single point]",
CC(=O)N1CCN(C(=O)c2ccc(C(=O)c3ccccc3)cc2)CC1,"inconclusive: 25.9 µM [activator, single point]",
Cc1nc2ccccn2c1C(=O)N/N=C/c1ccc2c(c1)OCO2,"inconclusive: 16.4 µM [activator, partial curve, poor fit]",
O=C(COc1ccc2ccc(=O)oc2c1)NC(Cc1ccc(Cl)cc1)C(=O)O (stereo not given),"inconclusive: 3.26 µM [activator, single point]",
CCOC(=O)N1CCN(C(=O)C2CCN(CC3CCCCC3)CC2)CC1,,inconclusive: -692% [activator]
Cc1cc(C)nc(/N=C(\N)Nc2cccc(OCc3ccccc3)c2)n1,"inconclusive: 3.66 µM [activator, partial curve, poor fit]",
O=C1c2cccc(OCC(=O)N3CCCc4ccccc43)c2CCN1Cc1ccc(Br)cc1,"inconclusive: 29.1 µM [activator, single point]",
C=CS(=O)(=O)c1ccc(Oc2ccc(S(=O)(=O)C=C)cc2)cc1,"inconclusive: 3.66 µM [activator, partial curve, poor fit]",
COC(=O)[C@@]1(Cc2ccc(OC)cc2)[C@H]2c3cc(C(=O)N4CCCC4)n(Cc4ccc(OC)c(OC)c4)c3C[C@H]2CN1C(=O)c1ccccc1,"inconclusive: 29.1 µM [activator, single point]",
CCOc1ccc2nc(NC(=O)C3CCCN(S(=O)(=O)c4c(C)noc4C)C3)sc2c1 (stereo not given),,inactive: -2.14%
CC1(C)C(C=C(Cl)Cl)C1C(=O)N(Cc1cccc(Cl)c1)C1CCS(=O)(=O)C1 (stereo not given),,inactive: -3.32%
N#Cc1cnn(-c2ccccc2)c1NC(=O)CN1CCOCC1,"inconclusive: 3.66 µM [activator, single point]",

# Another view of part of the listing above.
SMILES | Potency | re-replication activation
CCN1CCN(C(=O)Nc2ccccc2OC)CC1 |  | inactive: 3.46%
COc1ccc(S(=O)(=O)N[C@@H](CSCc2ccccc2)C(=O)O)cc1 |  | inactive: -1.98%
CCn1cc(Cl)c(C(=O)N2N=C(c3ccc4ccccc4c3)CC2c2ccccc2O)n1 (stereo not given) | inconclusive: 0.058 µM [activator, full curve, poor fit] | 
COCCn1c(-c2ccc3ccccc3c2)nc2c1c(=O)[nH]c(=O)n2CC(C)C |  | inactive: 16.6%

# Entries of single compounds from above:
# `CCOC(=O)CSc1nc(C2CC2)nc2ccccc12` is entered as re-replication activation: inactive: -7.32%
# `O=C(Cn1c(=O)oc2ccccc21)Nc1nc(-c2ccc(Br)cc2)cs1` is entered as Potency: inconclusive: 29.1 µM [activator, single point]
